Results from US20220184102A1, “COMPOSITIONS AND METHODS FOR TREATING AGE-RELATED MACULAR DEGENERATION” (priority 2019, published 2022).
For at least one compound, name, drawing or mass did not settle the structure.

Assay: anti-microbial activity of doxycycline at 40 mg per day

With `C[C@H]1c2cccc(O)c2C(=O)C2=C(O)[C@]3(O)C(=O)C(C(N)=O)=C(O)[C@@H](N(C)C)[C@@H]3[C@@H](O)[C@@H]21` [doxycycline] the anti-microbial activity was “no anti-microbial activity”.
